Paper PMC9363125
Results are given in words; binding and its absence hold for the method and conditions named. A result given as binding can be weak or reduced; the word gives no strength. Where a sequence is shown, tags or fusion partners need not be part of it.

What was measured:
[1] = target: Frizzled-7 (Fzd7) (Xenopus); assay: confocal imaging of mVenus fluorescence on receptor-expressing cells in embryos; mRNA of mV-Wnt6 or secreted mVenus (500 pg) and Fzd7 mRNA (with mRFP) injected into different blastomeres of Xenopus embryos at the four-cell stage; fixed at st.10.5; mVenus intensity compared between Fzd7-expressing and neighbouring cells
[2] = target: dominant-negative Fzd7 with mouse IgG transmembrane sequence (dnFzd7-TM) (Xenopus | mouse); assay: confocal imaging of mVenus fluorescence on receptor-expressing cells in embryos; mV-Wnt6 mRNA and TCF-dnFzd7-TM plasmid (with mRFP mRNA) injected into different blastomeres of Xenopus embryos at the four-cell stage; mVenus intensity on the cell membrane of mRFP-positive and mRFP-negative cells compared

binding [1]: binds
binding [2]: binds
B1: mVenus-tagged Wnt6 (N-terminally tagged Wnt6) (ligand, UniProt P31287 1-129)
chain: QECKCHGLSGSCTFTTCWKKMPHFREVGDRLLERFNGAFKVMGGNDGKTIIPVGHNIKPPDKQDLIYSAESPDFCQANRKTGSPGTRGRVCNSTALDVGGCDLLCCGRGQREETVVVEENCLCRFHWCC
